Test results published in PubChem BioAssay AID504467 (National Center for Advancing Translational Sciences (NCATS), 2011).
Screen size: about 330,000 compounds; about 7,700 (2.3%) were called active. The inconclusive results got no clear call from the source; some entries with a clear call stand among them for comparison. Calls come from the whole dose curve; as a rule, active = well fitted inhibition curve with a large enough effect; inconclusive = small, poorly fitted or top-dose-only effect, or effect the other way; inactive = flat fitted curve, though single readings scatter. Potencies beside an inconclusive call are fits to weak or partial responses and may not hold up.

Assay: qHTS screen for small molecules that inhibit ELG1-dependent DNA repair in human embryonic kidney (HEK293T) cells expressing luciferase-tagged ELG1; note: nearly all actives have a fitted effect of over 55% in size
Conditions: HEK293T ELG1-luciferase reporter, luminescence, 16 h, DNA damage induced by 5-fluorouridine; series mostly up to 46.1 µM
Procedure, shortened: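 Step one: seed 2,000 cells per well. Step two: pin-transfer compound or DMSO alongside 5-fluorouridine. Step three: incubate 16 hr, 37 °C, 5% CO2. Step four: add ONE-Glo, wait 30 min, read luminescence.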
Potency is the fitted concentration of half-maximal effect.

Compound	Potency
COC(=O)CCSCc1cn2cc(Cl)ccc2n1	inconclusive: 20.6 µM [activator, partial curve]
CCOC(=O)c1sc(NC(=O)c2cccnc2)nc1C	inconclusive: 29.1 µM [activator, single point]
CCOC(=O)c1nc(C)sc1-c1ccnn1S(=O)(=O)c1ccccc1C(F)(F)F	inactive
CN1C(=S)SC(C)(NO)C1(C)C (configuration not stated)	inconclusive: 8.91 µM [activator, partial curve, poor fit]
COc1cc(/C=C(\C#N)C(=O)NCc2cccs2)ccc1O	inconclusive: 14.6 µM [activator, single point]
COc1ccc(-c2noc(COc3ccc4c(c3)OCO4)n2)cc1	inactive
CC(=O)NC1CC(C)(C)N(OC(C)=O)C(C)(C)C1	inactive
CCOC(=O)c1[nH]c2ccc(OC)cc2c1NC(=O)c1ccc2c(c1)OCO2	inconclusive: 29.1 µM [inhibitor, single point]
COc1ccc(NC2CCCN(C(=O)C3(C)CCCCC3)C2)cc1OC (configuration not stated)	inconclusive: 23.1 µM [inhibitor, partial curve]
CCC(=O)Oc1ccc(C2N(C(=O)CC)CCN2S(=O)(=O)c2ccc(C)cc2)cc1OC (configuration not stated)	inactive
Cc1noc(C)c1S(=O)(=O)N1CCC(C(=O)N2CCN(c3ccccc3Cl)CC2)CC1	inconclusive: 29.1 µM [inhibitor, single point]
CN(C)c1ccc(NC(=O)c2ccc3nsnc3c2)cc1	inconclusive: 5.17 µM [activator, partial curve]
CN1C(=O)/C(=C/c2cccc(Cl)c2)Sc2ccc(C(=O)NCc3cccnc3)cc21	inconclusive: 1.46 µM [inhibitor, partial curve, poor fit]
COc1ccc(OCc2cc(C(=O)N3CCN(CC(=O)N(C)C)CC3)no2)c(Cl)c1	inactive
COc1cc(/C=N/NC(=O)c2ccc(Cn3cc([N+](=O)[O-])cn3)o2)cc(Br)c1O	inconclusive: 23.1 µM [inhibitor, partial curve, poor fit]
Cc1cc(=O)[nH]c(-n2nc(C)cc2C)n1	inactive
O=C(/C=C/c1ccc2c(c1)OCO2)Nc1cccnc1	inconclusive: 1.16 µM [activator, full curve, poor fit]
CC(=O)Nc1ccc(S(=O)(=O)/N=C2\C(=O)c3ccccc3C([O-])=C2n2cc[n+](-c3ccccn3)c2)cc1	inconclusive: 10.3 µM [inhibitor, partial curve, poor fit]
Cc1ccc(NC(=S)N(CCN2CCOCC2)Cc2ccccc2F)cc1Cl	inconclusive: 23.1 µM [inhibitor, single point]
COc1ccc2c(c1OC)C(=O)OC2Nc1nc(-c2cc3ccccc3oc2=O)cs1 (configuration not stated)	inconclusive: 2.31 µM [activator, partial curve]
COc1ccc(S(=O)(=O)N(C)CC(=O)NCCc2ccccc2)cc1OC	inconclusive: 1.83 µM [activator, full curve, poor fit]
O=C(COc1ccc2cc(Br)ccc2c1)N1CCCC1	inconclusive: 13 µM [activator, partial curve, poor fit]
COc1ccc(-c2nnc(-c3ccccc3O)o2)cc1	inconclusive: 5.8 µM [activator, full curve]

Compound	Potency
S=C(NCCN(C1CCCCC1)C1CCCC1)Nc1cccc(Cl)c1	inconclusive: 29.1 µM [inhibitor, partial curve, poor fit]
CC/C(=N\O)c1ccc(O)c(OC)c1	inconclusive: 32.6 µM [inhibitor, single point]
O=S(=O)(c1cccs1)N1CCC(Cc2ccccc2)CC1	inconclusive: 0.58 µM [inhibitor, single point]
Cc1nn(-c2ccccc2)c(C)c1CN(C)C(=O)c1ccc(S(=O)(=O)NCc2ccco2)cc1	inconclusive: 29.1 µM [inhibitor, single point]
Cc1ccc(C(=O)CSc2nnc(CNc3ccc(F)cc3)o2)cc1	inconclusive: 32.6 µM [inhibitor, partial curve, poor fit]
CSc1nc2c(c(=O)[nH]1)C(c1ccc(Br)cc1)CC(=O)N2 (configuration not stated)	inconclusive: 29.1 µM [activator, partial curve, poor fit]
COc1cc(NC(=O)CCCc2c[nH]c3ccccc23)cc(OC)c1	inconclusive: 29.1 µM [inhibitor, single point]
S=C(NCCc1ccccc1)N1CCN(Cc2ccccc2)CC1	inconclusive: 16.4 µM [activator, single point]
CC1CN(CC(O)COc2ccc(C(C)C)cc2)CC(C)O1 (configuration not stated)	inactive
CSCC[C@@H](C(=O)NCCCCCCCCCCC(=O)N1CCN(C(=O)OC(C)(C)C)CC1)n1cc(CCO)nn1	active: 18.3 µM
CCn1c(N)c(C(=O)NCCCOC)sc1=S	inconclusive: 29.1 µM [activator, single point]
Cc1nn(C)c(Cl)c1C(=O)NCC(=O)NCc1ccccc1	inactive
COc1cc(NC(=O)c2cccs2)ccc1NC(=O)c1ccco1	inconclusive: 4.47 µM [activator, partial curve]
COc1ccc(Br)cc1CN1CCN(C(=O)c2cccc(OC)c2OC)CC1	inconclusive: 29.1 µM [inhibitor, single point]
CC(C)/C=N\NC(=O)CCCCC(=O)N/N=C/C(C)C	inactive
CCOc1ccccc1-c1nc(C(N)=O)c2[nH]c(=O)n(-c3ccccc3)c2n1	inconclusive: 6.51 µM [activator, partial curve, poor fit]
O=Cc1c(Sc2ccccn2)nc2ccccn2c1=O	inconclusive: 32.6 µM [inhibitor, single point]
Cc1cc(=O)oc2c(C)c(OC(C)C(=O)NC3CCN(Cc4ccccc4)CC3)ccc12 (configuration not stated)	inconclusive: 20.6 µM [activator, partial curve]
Cc1ccc(C(=O)O)cc1NC(=O)Nc1ccc2c(c1)OCO2	inconclusive: 29.1 µM [activator, single point]
CCCCc1cc(=O)oc2cc(C)cc(OCC(=O)N3CCC(C(=O)O)(c4ccccc4)CC3)c12	inactive
CCn1c(SCC(=O)Nc2ccc3c(c2)OCCO3)nnc1-c1ccco1	inactive
CCOC(=O)CCCCCC(=O)Nc1ccc2c(c1)CC(=O)N([C@@H](C)CO)C[C@@H](C)[C@@H](CN(C)C(=O)Nc1ccc(C(F)(F)F)cc1)O2	inactive
Cc1ccccc1NC(=O)Cc1nnc(SCC(=O)NC2=NCCS2)n1C	inactive

An excerpt from above in order of count of non-hydrogen atoms, low to high.
Compound	Potency
COC(=O)CCSCc1cn2cc(Cl)ccc2n1	inconclusive: 20.6 µM [activator, partial curve]
COc1ccc(S(=O)(=O)N(C)CC(=O)NCCc2ccccc2)cc1OC	inconclusive: 1.83 µM [activator, full curve, poor fit]
CCOC(=O)c1[nH]c2ccc(OC)cc2c1NC(=O)c1ccc2c(c1)OCO2	inconclusive: 29.1 µM [inhibitor, single point]

(continued)

Compound	Potency
CN(C)CCCNc1ncnc2oc(-c3ccccc3)c(-c3ccccc3)c12	inconclusive: 6.51 µM [activator, partial curve, poor fit]
COc1cccc(C(=O)Nc2ccc(C(F)(F)F)n(C)c2=O)c1	inconclusive: 10.3 µM [activator, partial curve]
Oc1ccc(N2CCN(c3ccnc4cc(Cl)ccc34)CC2)cc1	inconclusive: 18.3 µM [inhibitor, single point]
CCCCn1c(SCC(=O)Nc2nnc(CC)s2)nc2c1c(=O)n(C)c(=O)n2C	active: 2.51 µM
Brc1csc(/C=N/Nc2nc3ccccc3s2)c1	inconclusive: 2.31 µM [activator, partial curve]
Cc1cccc(-n2c(=O)c3c(C)c(C)sc3n(CC(N)=O)c2=O)c1	inconclusive: 1.16 µM [inhibitor, single point]
COc1ccc(NC(=O)c2cnc(SC)n2-c2ccc(F)cc2)c(OC)c1	inconclusive: 18.3 µM [inhibitor, partial curve]
Cc1cc(C)cc(OCc2ccc(C(=O)NC3CCOC3=O)o2)c1 (configuration not stated)	inconclusive: 29.1 µM [activator, single point]
COc1ccc(-c2cnc(N)nc2-c2ccc(OC)cc2O)cc1	active: 23.1 µM
CC(C)OCCCN1C(=O)c2[nH]nc(-c3ccccc3O)c2C1c1cccc(Cl)c1 (configuration not stated)	inconclusive: 29.1 µM [inhibitor, single point]
COc1ccc(NC(=O)c2ccc(NC(=O)COC(=O)c3cnc(C)cn3)cc2)cc1	inconclusive: 25.9 µM [activator, partial curve, poor fit]
Cc1ccc(-c2nc(CS(=O)CC(=O)NCCN3CCCCC3C)c(C)o2)cc1 (configuration not stated)	inconclusive: 29.1 µM [activator, partial curve, poor fit]
COc1ccc(N2C(=O)c3ccccc3NC2c2ccccc2O)cc1 (configuration not stated)	inconclusive: 10.3 µM [activator, partial curve]
CCOc1ccc(C(=O)N2CCCC2)cc1	inconclusive: 18.4 µM [activator, partial curve, poor fit]
COc1ccc(CCc2nnc(CCC(=O)NCc3ccc4ncccc4c3)o2)cc1	inconclusive: 18.3 µM [activator, single point]
CC(=O)c1ccc(O[C@@H]2O[C@H](CO)[C@@H](O)[C@H](O)[C@H]2O)cc1	inactive
CC1CCC(=C(C#N)C(=O)Nc2cccc(Cl)c2)CC1 (configuration not stated)	inactive
O=C(/C=C/CCc1ccc2c(c1)OCO2)N1CCCCC1	inconclusive: 20.6 µM [activator, single point]
O=C(CN1c2cccc3cccc(c23)S1(=O)=O)Nc1ccc(F)c(F)c1F	active: 23.1 µM
Cc1cc(/C=C(\C#N)C(=O)Nc2ccccc2F)c(C)[nH]1	inconclusive: 3.26 µM [activator, full curve]
Cc1nnc2ccc(Oc3ccc(-c4ccccc4)cc3)nn12	inconclusive: 18.4 µM [activator, partial curve, poor fit]
